These are yes or no findings as the source states them, for the method shown. Binding seen in cells or lysates may run through a third protein. Some entries that bind do so weakly or less than the wild type.
Target: T1, carcinoembryonic antigen-related cell adhesion molecule 1 (CEACAM1) (mouse (endogenous in G-2 cells)) (UniProt P31809)
T1 sequence: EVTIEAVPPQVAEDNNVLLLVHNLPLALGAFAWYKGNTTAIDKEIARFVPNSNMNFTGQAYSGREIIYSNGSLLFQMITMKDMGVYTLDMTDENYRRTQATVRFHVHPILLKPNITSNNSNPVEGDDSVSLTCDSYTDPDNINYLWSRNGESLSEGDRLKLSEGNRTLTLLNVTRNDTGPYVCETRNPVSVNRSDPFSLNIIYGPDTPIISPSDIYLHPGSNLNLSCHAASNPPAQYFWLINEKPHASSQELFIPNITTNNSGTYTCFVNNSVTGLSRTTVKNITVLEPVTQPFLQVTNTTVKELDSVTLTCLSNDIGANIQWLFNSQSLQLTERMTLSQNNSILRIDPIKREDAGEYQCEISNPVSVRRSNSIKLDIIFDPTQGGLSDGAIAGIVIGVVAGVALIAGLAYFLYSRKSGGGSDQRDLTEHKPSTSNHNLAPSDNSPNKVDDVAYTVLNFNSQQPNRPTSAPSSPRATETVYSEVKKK
Assay: co-IP; 200 μg G-2 cell lysate in CHAPS buffer (100 mM Tris-HCl pH 7.4, 50 mM NaCl, 1 mM EDTA, 1% NP40, 0,1% CHAPS); anti-mouse CEACAM1 antibody CC1 or anti-E-cadherin antibodies on protein G sepharose, overnight at 4°C; immunoblot with anti-β-catenin and anti-CEACAM1

Chains of the proteins cited; added tags and fusions are not shown.
UniProt Q02248: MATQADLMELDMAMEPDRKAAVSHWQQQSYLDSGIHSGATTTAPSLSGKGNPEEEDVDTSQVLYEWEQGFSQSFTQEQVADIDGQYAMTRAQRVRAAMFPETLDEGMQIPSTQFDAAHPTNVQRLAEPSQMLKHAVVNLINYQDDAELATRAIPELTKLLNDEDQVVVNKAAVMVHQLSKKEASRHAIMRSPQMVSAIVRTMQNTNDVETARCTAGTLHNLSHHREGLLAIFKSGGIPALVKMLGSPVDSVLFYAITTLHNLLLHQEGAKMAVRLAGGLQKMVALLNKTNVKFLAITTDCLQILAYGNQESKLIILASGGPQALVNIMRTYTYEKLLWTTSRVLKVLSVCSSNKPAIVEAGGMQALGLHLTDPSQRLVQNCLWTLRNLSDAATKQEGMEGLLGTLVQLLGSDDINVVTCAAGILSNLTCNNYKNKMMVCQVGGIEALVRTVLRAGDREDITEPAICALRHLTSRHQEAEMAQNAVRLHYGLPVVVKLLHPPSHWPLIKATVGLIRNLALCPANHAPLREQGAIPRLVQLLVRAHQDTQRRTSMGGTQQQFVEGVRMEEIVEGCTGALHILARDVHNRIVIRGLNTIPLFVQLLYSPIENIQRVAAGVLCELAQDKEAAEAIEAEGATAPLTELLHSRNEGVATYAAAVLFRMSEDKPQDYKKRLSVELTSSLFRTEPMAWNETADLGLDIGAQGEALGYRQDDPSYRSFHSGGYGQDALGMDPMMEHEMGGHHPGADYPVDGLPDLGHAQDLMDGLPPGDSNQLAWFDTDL

**Q.** Which binding does the source give for β-catenin (from UniProt Q02248 1-781) here?
**A.** binds

— paper PMC5325399
